Values from PubChem BioAssay AID1259308 (NCATS, 2017).
Here is an unselected part of about 59,000 deposited reagents. About 1,510 of them (2.6%) were called active. 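Calls use total luciferase alone and ignore viability, so some active siRNAs may act by altering cell number.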 Unmarked entries are inactive. Reagents against one gene are numbered here.

- Purpose: 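Genes whose loss raises luciferase production in HEK293 cells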 (primary screen)
- Cell system: human HEK293 embryonic kidney cells stably expressing firefly luciferase (HEK-CMV-Luc2-Hygro)
- Reagents: single siRNA against human genes, 0.8 pmol siRNA per well
- Time to read-out: 72 h
- Detection: 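Reporter luminescence and viable-cell signal on separate replicate plates, given as percent of non-targeting control and median/MAD z-scores, plus per-cell luciferase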
- Reading the numbers: total luciferase, z-score and total luciferase, % of control: higher = more reporter protein produced; luciferase per cell, z-score: higher = more reporter output per viable cell; viable cells, % of control: higher = more viable cells
- Rule for the call: 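An siRNA counts as active if its total luciferase robust z-score exceeds 3; genes with two or more such siRNAs out of three were retested with fresh siRNAs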
- Meaning of the calls: active = raised luciferase; inactive = no rise

| Target gene | reagent no. | total luciferase, z-score | total luciferase, % of control | luciferase per cell, z-score | viable cells, % of control |
| --- | --- | --- | --- | --- | --- |
| TNFSF4 | 1 | 0.344 | 88.7 | -0.544 | 114 |
| TNFSF4 | 2 | -0.342 | 75.1 | -0.46 | 94.7 |
| TNFSF4 | 3 | -0.169 | 78.5 | -0.697 | 105 |
| HHEX | 1 | -0.131 | 79.3 | 0.173 | 84.7 |
| HHEX | 2 | -1.09 | 60.2 | -1.49 | 99.6 |
| HHEX | 3 | -1.49 | 52.2 | -1.73 | 92.1 |
| HSD17B4 | 1 | 0.156 | 85 | 0.0466 | 93.8 |
| HSD17B4 | 2 | 0.937 | 101 | 0.799 | 91 |
| HSD17B4 | 3 | -0.463 | 72.7 | -0.382 | 89.8 |
| CAPN2 | 1 | -0.341 | 75.1 | -0.917 | 107 |
| CAPN2 | 2 | 0.0891 | 83.7 | 0.406 | 84 |
| CAPN2 | 3 | -0.326 | 75.4 | -0.471 | 95.4 |
| TREM2 | 1 | -0.1 | 79.9 | -0.317 | 97.1 |
| TREM2 | 2 | -1.53 | 51.5 | -1.66 | 89.1 |
| TREM2 | 3 | 1.61 | 114 | 1.42 | 87.5 |
| KLHL35 | 1 | -2.07 | 40.7 | -0.986 | 59 |
| KLHL35 | 2 | 0.399 | 89.8 | 1.13 | 74.6 |
| KLHL35 | 3 | 0.349 | 88.8 | 0.214 | 93.8 |
| GCNT2P1 | 1 | -0.658 | 68.8 | -0.593 | 89.9 |
| GCNT2P1 | 2 | -1.57 | 50.6 | -0.743 | 68.8 |
| GCNT2P1 | 3 | 0.607 | 94 | 1.21 | 76.4 |
| ZNF638 | 1 | -0.608 | 69.8 | -0.0675 | 79.4 |
| ZNF638 | 2 | 1.14 | 105 | 1.11 | 87.4 |
| ZNF638 | 3 | 1.14 | 105 | 0.449 | 104 |
| SLC25A22 | 1 | -0.654 | 68.9 | -0.774 | 94.4 |
| SLC25A22 | 2 | -1.66 | 48.8 | -0.773 | 66.8 |
| SLC25A22 | 3 | -0.29 | 76.1 | -0.536 | 97.9 |
| MAGEA1 | 1 | -1.17 | 58.7 | -1.78 | 105 |
| MAGEA1 | 2 | -0.76 | 66.8 | -0.381 | 82.5 |
| MAGEA1 | 3 | -0.401 | 73.9 | -1.38 | 119 |
| DZANK1 | 1 | -0.243 | 77.1 | -0.537 | 99.2 |
| DZANK1 | 2 | -0.214 | 77.6 | -0.728 | 105 |
| DZANK1 | 3 | 1.17 | 105 | 1.4 | 81.3 |

Reformatted: results already given
TNFSF4 #2
- total luciferase, z-score: -0.342
- total luciferase, % of control: 75.1
- luciferase per cell, z-score: -0.46
- viable cells, % of control: 94.7

TNFSF4 #3
- total luciferase, z-score: -0.169
- total luciferase, % of control: 78.5
- luciferase per cell, z-score: -0.697
- viable cells, % of control: 105

HHEX #1
- total luciferase, z-score: -0.131
- total luciferase, % of control: 79.3
- luciferase per cell, z-score: 0.173
- viable cells, % of control: 84.7

HHEX #2
- total luciferase, z-score: -1.09
- total luciferase, % of control: 60.2
- luciferase per cell, z-score: -1.49
- viable cells, % of control: 99.6

HHEX #3
- total luciferase, z-score: -1.49
- total luciferase, % of control: 52.2
- luciferase per cell, z-score: -1.73
- viable cells, % of control: 92.1

HSD17B4 #1
- total luciferase, z-score: 0.156
- total luciferase, % of control: 85
- luciferase per cell, z-score: 0.0466
- viable cells, % of control: 93.8

HSD17B4 #2
- total luciferase, z-score: 0.937
- total luciferase, % of control: 101
- luciferase per cell, z-score: 0.799
- viable cells, % of control: 91

HSD17B4 #3
- total luciferase, z-score: -0.463
- total luciferase, % of control: 72.7
- luciferase per cell, z-score: -0.382
- viable cells, % of control: 89.8

Next results follow.
| Target gene | reagent no. | total luciferase, z-score | total luciferase, % of control | luciferase per cell, z-score | viable cells, % of control |
| --- | --- | --- | --- | --- | --- |
| COX18 | 1 | -1.18 | 58.4 | 0.615 | 55.5 |
| COX18 | 2 | -0.327 | 75.4 | -0.67 | 100 |
| COX18 | 3 | -0.678 | 68.4 | -0.301 | 82.7 |
| PRMT2 | 1 | 0.273 | 87.3 | 0.674 | 81.7 |
| PRMT2 | 2 | 1.42 | 110 | 1.62 | 80.2 |
| PRMT2 | 3 | -0.569 | 70.6 | 0.0437 | 78 |
| ADH7 | 1 | 0.946 | 101 | 0.502 | 98.6 |
| ADH7 | 2 | -0.273 | 76.5 | -0.719 | 103 |
| ADH7 | 3 | -0.0313 | 81.3 | -0.228 | 96.4 |
| COPS5 | 1 | 0.297 | 87.8 | 0.986 | 75.7 |
| COPS5 | 2 | -0.861 | 64.8 | -0.0743 | 73.8 |
| COPS5 | 3 | -0.517 | 71.6 | 0.164 | 76.6 |
| MIR3976HG | 1 | -1.11 | 59.8 | -1.08 | 88.7 |
| MIR3976HG | 2 | 0.0174 | 82.2 | 0.369 | 83.4 |
| MIR3976HG | 3 | -1.36 | 54.8 | -1.73 | 96.8 |
| SERPINE2 | 1 | -0.184 | 78.2 | 0.121 | 84.7 |
| SERPINE2 | 2 | 2.44 | 130 | 0.639 | 123 |
| SERPINE2 | 3 | -0.266 | 76.6 | -0.643 | 101 |
| FAN1 | 1 | -0.915 | 63.7 | -0.683 | 85.2 |
| FAN1 | 2 | -0.0579 | 80.7 | -0.0622 | 91.7 |
| FAN1 | 3 | -1.13 | 59.4 | -0.879 | 83.6 |
| DPH6 | 1 | -0.171 | 78.5 | 1.14 | 65 |
| DPH6 | 2 | -0.398 | 74 | -0.809 | 102 |
| DPH6 | 3 | 2.18 | 125 | 2.4 | 74.3 |
| NPR1 | 1 | 0.088 | 83.6 | 0.503 | 81.9 |
| NPR1 | 2 | 1.1 | 104 | -0.0209 | 116 |
| NPR1 | 3 | 1.01 | 102 | 1.61 | 74.6 |
| WDR1 | 1 | 2.6 | 134 | 3.31 | 62.4 |
| WDR1 | 2 | 0.875 | 99.3 | 1.5 | 74.7 |
| WDR1 | 3 | -0.588 | 70.2 | 0.027 | 77.9 |
| KCNG3 | 1 | 0.0381 | 82.6 | -0.561 | 107 |
| KCNG3 | 2 | -0.122 | 79.5 | -0.382 | 98.2 |
| KCNG3 | 3 | 2.19 | 125 | 0.969 | 109 |
| CHST4 | 1 | 0.526 | 92.4 | 0.461 | 91.4 |
| CHST4 | 2 | -0.0395 | 81.1 | 2.45 | 47.6 |
| CHST4 | 3 | 0.307 | 88 | -0.472 | 111 |
| RANBP9 | 1 | 0.0947 | 83.8 | 0.0992 | 91.2 |
| RANBP9 | 2 | 0.0916 | 83.7 | -0.161 | 97.6 |
| RANBP9 | 3 | 2.09 | 123 | 1.49 | 93.1 |
| CAMSAP3 | 1 | -0.773 | 66.5 | -0.339 | 81.3 |
| CAMSAP3 | 2 | 0.87 | 99.2 | 1.64 | 72 |
| CAMSAP3 | 3 | 0.288 | 87.6 | -0.158 | 102 |
